Binding data for 4 molecules are collected here from publication PMC3662692.

Amino acid sequences for entries named in this document (tags omitted). A change or cut given only in a name is not applied to a line headed by its entry.
UniProt Q03135: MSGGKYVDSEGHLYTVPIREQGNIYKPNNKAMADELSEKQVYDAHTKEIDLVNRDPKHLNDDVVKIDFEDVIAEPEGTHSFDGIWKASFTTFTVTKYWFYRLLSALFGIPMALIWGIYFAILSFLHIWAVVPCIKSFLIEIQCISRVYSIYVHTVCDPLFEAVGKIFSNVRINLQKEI
UniProt P04264: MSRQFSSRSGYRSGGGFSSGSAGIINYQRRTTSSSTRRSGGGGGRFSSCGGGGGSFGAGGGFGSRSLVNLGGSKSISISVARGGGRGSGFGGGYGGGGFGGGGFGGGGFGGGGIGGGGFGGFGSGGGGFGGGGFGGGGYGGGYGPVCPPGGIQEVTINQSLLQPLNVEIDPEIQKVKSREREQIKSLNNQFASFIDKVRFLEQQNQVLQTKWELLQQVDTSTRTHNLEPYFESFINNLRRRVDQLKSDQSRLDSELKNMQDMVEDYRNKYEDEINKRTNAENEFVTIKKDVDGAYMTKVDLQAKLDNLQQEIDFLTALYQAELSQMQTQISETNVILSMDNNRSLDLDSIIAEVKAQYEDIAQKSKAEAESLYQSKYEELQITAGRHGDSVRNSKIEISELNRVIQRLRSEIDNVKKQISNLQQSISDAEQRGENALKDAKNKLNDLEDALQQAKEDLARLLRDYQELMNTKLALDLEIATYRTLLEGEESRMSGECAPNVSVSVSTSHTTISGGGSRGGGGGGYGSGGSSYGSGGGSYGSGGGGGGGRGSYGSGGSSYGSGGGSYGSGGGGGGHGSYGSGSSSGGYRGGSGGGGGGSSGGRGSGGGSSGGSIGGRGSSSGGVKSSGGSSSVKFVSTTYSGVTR
UniProt O43795: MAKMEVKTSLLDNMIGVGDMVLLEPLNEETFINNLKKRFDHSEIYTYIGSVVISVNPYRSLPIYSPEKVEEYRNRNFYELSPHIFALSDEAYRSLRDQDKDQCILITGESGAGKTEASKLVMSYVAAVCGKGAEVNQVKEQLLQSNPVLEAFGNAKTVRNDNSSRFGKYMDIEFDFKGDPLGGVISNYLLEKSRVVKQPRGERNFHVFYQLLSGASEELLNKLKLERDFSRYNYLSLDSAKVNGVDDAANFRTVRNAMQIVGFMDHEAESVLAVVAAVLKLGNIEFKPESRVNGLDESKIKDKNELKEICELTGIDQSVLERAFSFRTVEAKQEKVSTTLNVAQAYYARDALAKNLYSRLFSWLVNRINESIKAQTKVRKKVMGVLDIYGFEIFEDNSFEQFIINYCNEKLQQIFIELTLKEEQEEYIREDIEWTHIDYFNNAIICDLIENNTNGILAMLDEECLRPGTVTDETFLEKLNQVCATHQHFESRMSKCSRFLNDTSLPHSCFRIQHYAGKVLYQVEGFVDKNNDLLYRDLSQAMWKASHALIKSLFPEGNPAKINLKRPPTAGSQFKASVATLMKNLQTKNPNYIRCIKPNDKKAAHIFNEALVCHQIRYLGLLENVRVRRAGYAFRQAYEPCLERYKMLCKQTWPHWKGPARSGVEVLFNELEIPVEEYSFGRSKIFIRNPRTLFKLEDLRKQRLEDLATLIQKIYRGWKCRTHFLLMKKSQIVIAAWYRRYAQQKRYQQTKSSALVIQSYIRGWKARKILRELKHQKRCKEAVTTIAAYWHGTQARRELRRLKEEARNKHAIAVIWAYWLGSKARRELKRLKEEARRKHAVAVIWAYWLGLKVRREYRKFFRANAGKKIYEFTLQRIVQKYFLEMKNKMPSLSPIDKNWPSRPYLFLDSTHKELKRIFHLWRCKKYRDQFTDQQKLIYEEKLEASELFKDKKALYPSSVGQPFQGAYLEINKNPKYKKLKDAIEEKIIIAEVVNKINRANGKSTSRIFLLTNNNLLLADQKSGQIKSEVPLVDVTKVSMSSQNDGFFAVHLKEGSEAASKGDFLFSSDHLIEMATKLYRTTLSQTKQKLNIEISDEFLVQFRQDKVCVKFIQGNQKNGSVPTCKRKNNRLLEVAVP
UniProt P35579: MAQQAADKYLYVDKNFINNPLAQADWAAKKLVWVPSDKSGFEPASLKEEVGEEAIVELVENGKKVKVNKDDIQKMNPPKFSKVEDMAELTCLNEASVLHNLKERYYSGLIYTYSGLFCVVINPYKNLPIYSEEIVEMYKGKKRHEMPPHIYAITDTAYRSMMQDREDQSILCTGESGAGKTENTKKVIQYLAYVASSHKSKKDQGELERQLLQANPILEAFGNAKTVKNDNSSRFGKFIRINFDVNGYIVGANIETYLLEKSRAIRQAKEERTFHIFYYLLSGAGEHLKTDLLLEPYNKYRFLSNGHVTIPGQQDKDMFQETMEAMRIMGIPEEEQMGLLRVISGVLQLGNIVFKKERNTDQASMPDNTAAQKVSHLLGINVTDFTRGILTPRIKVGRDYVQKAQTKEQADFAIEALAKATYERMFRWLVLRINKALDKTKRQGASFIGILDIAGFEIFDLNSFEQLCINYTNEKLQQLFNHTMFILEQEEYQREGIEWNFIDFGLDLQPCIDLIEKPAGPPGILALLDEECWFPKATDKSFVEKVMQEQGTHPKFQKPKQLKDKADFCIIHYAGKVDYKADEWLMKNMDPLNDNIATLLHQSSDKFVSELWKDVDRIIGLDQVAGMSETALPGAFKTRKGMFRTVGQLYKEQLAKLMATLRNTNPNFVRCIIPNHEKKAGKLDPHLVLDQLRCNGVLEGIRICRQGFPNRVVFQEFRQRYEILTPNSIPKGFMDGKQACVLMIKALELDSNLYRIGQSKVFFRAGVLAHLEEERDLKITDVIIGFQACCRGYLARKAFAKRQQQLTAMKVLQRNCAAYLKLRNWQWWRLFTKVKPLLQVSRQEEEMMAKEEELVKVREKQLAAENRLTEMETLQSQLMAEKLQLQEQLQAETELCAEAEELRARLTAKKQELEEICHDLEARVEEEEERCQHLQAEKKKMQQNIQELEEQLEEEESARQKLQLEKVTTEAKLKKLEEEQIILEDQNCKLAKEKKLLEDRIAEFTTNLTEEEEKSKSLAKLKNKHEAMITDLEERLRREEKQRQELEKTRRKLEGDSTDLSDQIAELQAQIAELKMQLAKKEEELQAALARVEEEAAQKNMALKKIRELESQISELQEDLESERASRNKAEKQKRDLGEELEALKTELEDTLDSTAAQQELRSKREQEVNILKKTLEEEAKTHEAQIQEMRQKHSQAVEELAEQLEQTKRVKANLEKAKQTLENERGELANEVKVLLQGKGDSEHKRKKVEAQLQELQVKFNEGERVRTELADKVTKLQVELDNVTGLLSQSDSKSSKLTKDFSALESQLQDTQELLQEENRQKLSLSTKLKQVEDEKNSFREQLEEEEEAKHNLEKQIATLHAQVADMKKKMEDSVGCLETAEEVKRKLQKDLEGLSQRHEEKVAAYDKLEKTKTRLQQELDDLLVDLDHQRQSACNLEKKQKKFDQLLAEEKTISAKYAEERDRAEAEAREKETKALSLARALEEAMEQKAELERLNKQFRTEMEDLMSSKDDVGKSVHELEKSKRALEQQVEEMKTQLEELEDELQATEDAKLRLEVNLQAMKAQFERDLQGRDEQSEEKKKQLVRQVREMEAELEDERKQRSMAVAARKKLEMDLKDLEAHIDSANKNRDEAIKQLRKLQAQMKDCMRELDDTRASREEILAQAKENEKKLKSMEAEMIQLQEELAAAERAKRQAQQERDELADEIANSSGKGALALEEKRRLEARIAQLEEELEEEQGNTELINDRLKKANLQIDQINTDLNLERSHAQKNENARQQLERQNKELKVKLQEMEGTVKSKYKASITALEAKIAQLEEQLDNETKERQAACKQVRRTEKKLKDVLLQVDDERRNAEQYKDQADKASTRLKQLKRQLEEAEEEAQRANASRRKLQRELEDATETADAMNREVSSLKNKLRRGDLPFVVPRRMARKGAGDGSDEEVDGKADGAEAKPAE

Results are given in words; binding and its absence hold for the method and conditions named. Binding seen in cells or lysates may run through a third protein. A yes stands for co-enrichment or nearness to the bait. Other partners may have been found.

To fix the notation:
B1: myosin ID (protein, UniProt O94832 1-1006)
chain: MAEQESLEFGKADFVLMDTVSMPEFMANLRLRFEKGRIYTFIGEVVVSVNPYKLLNIYGRDTIEQYKGRELYERPPHLFAIADAAYKAMKRRSKDTCIVISGESGAGKTEASKYIMQYIAAITNPSQRAEVERVKNMLLKSNCVLEAFGNAKTNRNDNSSRFGKYMDINFDFKGDPIGGHINNYLLEKSRVIVQQPGERSFHSFYQLLQGGSEQMLRSLHLQKSLSSYNYIHVGAQLKSSINDAAEFRVVADAMKVIGFKPEEIQTVYKILAAILHLGNLKFVVDGDTPLIENGKVVSIIAELLSTKTDMVEKALLYRTVATGRDIIDKQHTEQEASYGRDAFAKAIYERLFCWIVTRINDIIEVKNYDTTIHGKNTVIGVLDIYGFEIFDNNSFEQFCINYCNEKLQQLFIQLVLKQEQEEYQREGIPWKHIDYFNNQIIVDLVEQQHKGIIAILDDACMNVGKVTDEMFLEALNSKLGKHAHFSSRKLCASDKILEFDRDFRIRHYAGDVVYSVIGFIDKNKDTLFQDFKRLMYNSSNPVLKNMWPEGKLSITEVTKRPLTAATLFKNSMIALVDNLASKEPYYVRCIKPNDKKSPQIFDDERCRHQVEYLGLLENVRVRRAGFAFRQTYEKFLHRYKMISEFTWPNHDLPSDKEAVKKLIERCGFQDDVAYGKTKIFIRTPRTLFTLEELRAQMLIRIVLFLQKVWRGTLARMRYKRTKAALTIIRYYRRYKVKSYIHEVARRFHGVKTMRDYGKHVKWPSPPKVLRRFEEALQTIFNRWRASQLIKSIPASDLPQVRAKVAAVEMLKGQRADLGLQRAWEGNYLASKPDTPQTSGTFVPVANELKRKDKYMNVLFSCHVRKVNRFSKVEDRAIFVTDRHLYKMDPTKQYKVMKTIPLYNLTGLSVSNGKDQLVVFHTKDNKDLIVCLFSKQPTHESRIGELVGVLVNHFKSEKRHLQVNVTNPVQCSLHGKKCTVSVETRLNQPQPDFTKNRSGFILSVPGN

The assay deals with biotin-labeled Cav1 peptide, amino acid residues 7-21, phosphorylated at Tyr14 (UniProt Q03135). Kind of assay: affinity purification with mass spectrometry; biotin-labeled Cav1 peptides (residues 7-21, with or without phosphorylated Tyr14) as bait, streptavidin-agarose pull-down from AGS cell lysates, SDS-PAGE, silver staining, Maldi-MS/MS of bands enriched with the pY14 peptide; only the target purified.
Take “cytokeratin 1 (from UniProt P04264 1-644)”: the binding result is reported as “binds”.
The same measure for myosin IB (from UniProt O43795 1-1136): “binds”; for “non muscle myosin heavy chain IIA (from UniProt P35579 1-1960)”: “binds”; for B1: “binds”.
